{
  "source": "PubChem BioAssay AID504648",
  "about": "(National Center for Advancing Translational Sciences (NCATS), 2011)",
  "note": "Values joined by “and” are separate entries in the source; they are usually repeats but may differ in a detail not shown here. Equal entries are not always repeated. The campaign covered roughly 390,000 compounds. About 610 (0.16%) were called active. The shares of active, inactive and inconclusive entries below differ from those in the screen. Calls come from the whole dose curve; as a rule, active = well fitted inhibition curve with a large enough effect; inconclusive = small, poorly fitted or top-dose-only effect, or effect the other way, or another doubt; inactive = no such curve, though single readings can be large or run the other way. Potencies beside an inconclusive call are fits to weak or partial responses and may not hold up. Potency is the fitted concentration of half-maximal effect.",
  "data": [
    {"experiment": "Nrf2 qHTS screen for inhibitors: counterscreen for cytotoxicity", "conditions": "A549 ARE-Fluc cells, CellTiter-Fluor viability, 18-24 h; series mostly up to 46 µM", "how_it_was_run": "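A549 ARE-Fluc cells in 5% FBS OPTI-MEM, 5000 cells/well, rested 2 h then exposed to compounds in concentration-response for 18-24 h at 37 °C. Viability by CellTiter-Fluor fluorescence (Ex 405/Em 525) after 30 min; luciferase luminescence (BugLite, 15 min, RT) read afterwards.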", "values": [
      {"smiles": "c1ccc(CN2CCC(Nc3nc(-c4cccnc4)nc4ccccc34)CC2)cc1", "Potency": "inconclusive: 20.6 µM [falling, partial curve, poor fit]"},
      {"smiles": "COc1cc(CN(C)C)cc(C=O)c1O", "Potency": "inactive"},
      {"smiles": "CC(C)(C)OC(=O)NCCCC[C@H](NC(=O)c1[nH]cnc1C(=O)Nc1ccc(Cl)cc1)C(=O)OC(C)(C)C", "Potency": "inconclusive: 18.4 µM [falling, single point]"},
      {"smiles": "CC(C)c1ccc(Nc2c(-c3ccccn3)nc3ccccn23)cc1", "Potency": "inconclusive: 16.4 µM [falling, single point]"},
      {"smiles": "O=C(CN1CCCC1)Nc1ccc(-c2nc3cc(NC(=O)CN4CCCC4)ccc3o2)cc1", "Potency": "inconclusive: 16.4 µM [falling, partial curve]"},
      {"smiles": "Cc1ccc(-c2cn(-c3ccccc3)c3[n+]2CCCS3)cc1", "Potency": "inconclusive: 9.2 µM [falling, partial curve, poor fit] and inconclusive: 20.6 µM [falling, partial curve, poor fit]"},
      {"smiles": "COc1ccccc1-n1c(C)cc(/C=C2/C(=N)N3C(=NC2=O)SN=C3S(C)(=O)=O)c1C", "Potency": "inconclusive: 23.1 µM [falling, partial curve, poor fit]"},
      {"smiles": "O=C(CN1C(=O)N/C(=C\\c2ccccc2OCc2ccc(C(=O)O)cc2)C1=O)Nc1ccc(F)cc1", "Potency": "inconclusive: 3.66 µM [activator, full curve, poor fit]"},
      {"smiles": "Cc1ccc(CN(C(=O)c2sc3ccccc3c2Cl)C2CCS(=O)(=O)C2)cc1", "note": "(centres undefined)", "Potency": "inconclusive: 29.1 µM [activator, single point]"},
      {"smiles": "Clc1ccc(-c2nnc3c4ccccc4nc(N4CCOCC4)n23)cc1Cl", "Potency": "inconclusive: 23.1 µM [activator, partial curve, poor fit]"},
      {"smiles": "O=C(c1ccccn1)N1CCN(S(=O)(=O)c2ccc3ccccc3c2)CC1", "Potency": "inconclusive: 0.651 µM [falling, full curve, poor fit]"},
      {"smiles": "Cc1cc(C)n(C(C)CC(=O)Nc2cccc(C#N)c2)n1", "note": "(centres undefined)", "Potency": "inactive"},
      {"smiles": "CC(=O)Nc1ccc(S(=O)(=O)N2CCN(Cc3nc4sc(C)c(C)c4c(=O)[nH]3)CC2)cc1", "Potency": "inactive"},
      {"smiles": "CN(C)CCCN(C(=O)c1ccc([N+](=O)[O-])o1)c1nc2cc3c(cc2s1)OCO3", "Potency": "inconclusive: 18.4 µM [falling, partial curve, poor fit]"},
      {"smiles": "O=C(Oc1cccc2cccnc12)c1ccco1", "Potency": "inactive"},
      {"smiles": "COc1cc(NC(=O)c2[nH]cnc2C(N)=O)cc(C(=O)Nc2cccc(C(F)(F)F)c2)c1", "Potency": "active: 20.6 µM"},
      {"smiles": "Cc1ccc(NS(=O)(=O)c2cc(C(=O)Nc3cccc([N+](=O)[O-])c3)ccc2C)cc1", "Potency": "inconclusive: 23.1 µM [falling, single point]"},
      {"smiles": "Cc1cc(C)n(-c2ccc(C(=O)Nc3ccc(S(=O)(=O)NCc4ccco4)cc3)cc2)n1", "Potency": "inconclusive: 29.1 µM [falling, single point]"},
      {"smiles": "COC(=O)c1sccc1NC(=O)Nc1cccc([N+](=O)[O-])c1", "Potency": "inactive"},
      {"smiles": "CC1CCC(CN2CCN=C2N(C)C)CC1", "note": "(centres undefined)", "Potency": "inconclusive: 4.11 µM [activator, partial curve, poor fit]"},
      {"smiles": "O=C(O)c1cc([N+](=O)[O-])ccc1NCCc1ccccc1", "Potency": "inconclusive: 29.1 µM [falling, single point]"},
      {"smiles": "COC(=O)c1c(-c2c(Cl)cccc2Cl)noc1C(=O)NN", "Potency": "inconclusive: 29.1 µM [activator, partial curve, poor fit]"},
      {"smiles": "Cc1onc(-c2ccccc2)c1C(=O)Nc1ncc([N+](=O)[O-])s1", "Potency": "inconclusive: 18.4 µM [falling, single point]"},
      {"smiles": "CCOc1cc(CNc2ccc(N3CCCCC3)cc2)cc(Br)c1OCC(=O)NC(C)(C)C", "Potency": "inconclusive: 11.6 µM [falling, partial curve, poor fit]"},
      {"smiles": "Nc1nonc1-n1nnc(C(=O)N/N=C/c2c[nH]c3ccccc23)c1-c1ccccc1", "Potency": "inconclusive: 7.31 µM [falling, partial curve, poor fit]"},
      {"smiles": "COc1cccc(N2C(=O)C(CC(=O)Nc3ccccc3)N(CCc3sccc3C)C2=O)c1", "note": "(centres undefined)", "Potency": "inactive"},
      {"smiles": "Cc1ncoc1C(=O)NC1CCCc2c1cnn2-c1ccc(C(C)(C)C)cc1", "note": "(centres undefined)", "Potency": "inconclusive: 9.2 µM [falling, partial curve, poor fit]"},
      {"smiles": "Cc1cc(C)c(OCC(=O)N(Cc2ccc(N(C)C)cc2)CC2CCCO2)c(C)c1", "note": "(centres undefined)", "Potency": "inactive"},
      {"smiles": "O=C1NC2(C=Cc3c(ccc4ccccc34)O2)Oc2ccccc21", "note": "(centres undefined)", "Potency": "inconclusive: 25.9 µM [falling, single point]"},
      {"smiles": "Cc1ccc(OCC(=O)N(Cc2ccc(Cl)cc2)Cc2ccco2)cc1C", "Potency": "inactive"},
      {"smiles": "C=CC[C@H](CC(=O)N(CCO)Cc1ccccc1)C(=O)N[C@H](COC(=O)[C@@H](CC=C)Cc1ccc(F)cc1)Cc1c[nH]c2ccccc12", "Potency": "inconclusive: 25.9 µM [falling, single point]"},
      {"smiles": "COc1cccc(-c2nc(SCC(=O)NCC3CCCO3)c(-c3ccc(C)cc3)[nH]2)c1", "note": "(centres undefined)", "Potency": "inactive"},
      {"smiles": "O=C(N/N=C/C=C/c1ccccc1)c1n[nH]c2c1CCC2", "Potency": "inconclusive: 5.17 µM [falling, partial curve, poor fit]"},
      {"smiles": "O=C(/C=C/Nc1ccc(Br)cc1F)c1ccco1", "Potency": "inactive"},
      {"smiles": "Cc1[nH]c2c(C)cccc2c1CCNC(=O)c1ccc2c(c1[N+](=O)[O-])C(=O)c1ccccc1C2=O", "Potency": "inconclusive: 23.1 µM [falling, partial curve, poor fit]"},
      {"smiles": "Cc1ccccc1C(=O)Nc1ccccc1OCc1cc(=O)n2ccccc2n1", "Potency": "inactive"},
      {"smiles": "Cc1cc(NC(=O)c2cc(C3CC3)on2)n(-c2ccccc2)n1", "Potency": "inconclusive: 3.26 µM [activator, partial curve, poor fit]"},
      {"smiles": "O=C(/C=C/c1cccs1)c1ccc(NC(=O)c2cccc(Br)c2)cc1", "Potency": "inactive"},
      {"smiles": "CC1CCN(C(=O)c2ccccc2SCC(=O)NCC2CCCCC2)CC1", "Potency": "inactive"},
      {"smiles": "C=CCOc1ccccc1CN1CCC(Oc2ccc(C(=O)N3CCCCC3)cc2)CC1", "Potency": "inconclusive: 18.4 µM [falling, single point]"},
      {"smiles": "CCCOc1cc(N(CC)CC)ccc1/C=C(/C#N)c1nc2ccc(C)cc2[nH]1", "Potency": "inconclusive: 14.6 µM [falling, single point]"},
      {"smiles": "COc1ccccc1N1CCN(C(=O)c2sc3nc(-c4ccccc4)cn3c2C)CC1", "Potency": "inactive"},
      {"smiles": "CCC(=O)C1=C(O)C(c2cccc(Oc3ccccc3)c2)CCC1=O", "note": "(centres undefined)", "Potency": "inconclusive: 5.8 µM [falling, partial curve]"},
      {"smiles": "Cc1nc2cc(C(=O)NCCC3=CCCCC3)ccc2n1-c1ccc(Br)cc1", "Potency": "inactive"},
      {"smiles": "O=C(CN(c1ccc(Cl)cc1)S(=O)(=O)c1ccc(Cl)c([N+](=O)[O-])c1)NCCc1ccc(F)cc1", "Potency": "inconclusive: 20.6 µM [falling, partial curve, poor fit]"},
      {"smiles": "CCCC(=O)NC(NC(=S)Nc1ccc(N=Nc2ccccc2)cc1)C(Cl)(Cl)Cl", "note": "(centres undefined)", "Potency": "inconclusive: 14.6 µM [falling, partial curve]"},
      {"smiles": "N#Cc1nc(-c2ccc(COc3ccccc3)o2)oc1NCc1cccnc1", "Potency": "inactive"},
      {"smiles": "O=C(/C=C/c1ccco1)Nc1ccc2nc3n(c(=O)c2c1)CCCC3", "Potency": "inconclusive: 13 µM [falling, partial curve, poor fit]"},
      {"smiles": "CCOCCCn1c(C)nc2c(c1=O)c1nc3ccccc3nc1n2CCC1=CCCCC1", "Potency": "inconclusive: 29.1 µM [falling, single point]"},
      {"smiles": "COc1ccc(-c2cc(C(=O)Nc3c(C)nn(Cc4ccccc4Cl)c3C)no2)cc1", "Potency": "inconclusive: 29.1 µM [falling, single point]"},
      {"smiles": "O=C(O)CC/C(=N\\Nc1ccccc1[N+](=O)[O-])c1cccs1", "Potency": "inconclusive: 18.4 µM [falling, partial curve]"},
      {"smiles": "COC(=O)Nc1nc(-c2ccccc2)c(C(=O)c2ccccc2)s1", "Potency": "inconclusive: 5.8 µM [falling, full curve]"},
      {"smiles": "CCn1c(SCC(=O)c2ccc(Cl)cc2)nnc1-c1cccs1", "Potency": "inactive"},
      {"smiles": "CCC(=O)Nc1cc2c(cc1Cl)-c1ccccc1C2", "Potency": "inactive"},
      {"smiles": "O=C(NCCc1nc2ccccc2n1CCCOc1ccccc1Cl)C1CCCCC1", "Potency": "inactive"},
      {"smiles": "CCCCNc1ncnc2c1cnn2-c1ccccc1", "Potency": "inconclusive: 6.51 µM [falling, partial curve, poor fit]"},
      {"smiles": "Nc1ncnc2c1ncn2[C@@H]1O[C@H](CNCc2c(OCc3ccccc3F)ccc3ccccc23)[C@@H](O)[C@H]1O", "Potency": "inconclusive: 29.1 µM [falling, single point]"},
      {"smiles": "Cc1noc(C)c1CSCC(=O)N1CCN(c2ccc([N+](=O)[O-])cc2)CC1", "Potency": "inconclusive: 20.6 µM [falling, single point]"},
      {"smiles": "O=C(N/N=C\\c1ccc([N+](=O)[O-])o1)c1cncc(Br)c1", "Potency": "inconclusive: 18.4 µM [falling, single point]"},
      {"smiles": "Cc1ccccc1-n1c(=O)c(C#N)cc2c(=O)n3ccccc3nc21", "Potency": "inconclusive: 16.4 µM [activator, partial curve]"},
      {"smiles": "CC(=NNC(=S)N1CC2CCC(CC2)C1)c1ccncn1", "Potency": "active: 16.4 µM"},
      {"smiles": "CCC1=NN(C(=O)c2cccc(Br)c2)C(O)(c2ccc(Br)cc2)C1", "note": "(centres undefined)", "Potency": "inconclusive: 9.2 µM [falling, partial curve, poor fit]"},
      {"smiles": "Cc1ccc(C(=O)NNC2=Nc3cccc4cccc2c34)cc1", "Potency": "inconclusive: 29.1 µM [falling, partial curve, poor fit]"},
      {"smiles": "CC1CCN(CCCNC(=O)CN2C(=O)CSc3ccc(S(=O)(=O)N4CCC(C)CC4)cc32)CC1", "Potency": "inconclusive: 32.6 µM [activator, partial curve, poor fit]"}
    ]}
  ]
}
